Assay results: US8883741B2, “Stimulator of genital, sexual and reproductive function” (Bio Peptid Company Limited, priority 2009, dated 2014)
Not every detail of the peptide structures is certain; ends, links or a residue may be inferred. Where no end group is shown, it is not given here.

What was measured:
[1] = test system: women with a pronounced decrease and absence of libido; assay: Sexual function on quantified SFW scale, Group IV; assay type: in vivo, human
[2] = test system: men with impairment of sexual function; assay: Sexual function on quantified SFM scale, men; assay type: in vivo, human; conditions: for Duration of sexual intercourse: patients with onset of effect, number (%) / Erection: patients with onset of effect, number (%) / Frequency of sexual performances: patients with onset of effect, number (%) / Mood after sex act: patients with onset of effect, number (%) / Mood before sexual intercourse: patients with onset of effect, number (%) / Sexual spirit: patients with onset of effect, number (%) / Need for sexual relations: patients with onset of effect, number (%): men n=8
[3] = men n=10, before treatment 1 (10%)
[4] = men n=10, before treatment 3 (30%)
[5] = men n=10, before treatment 5 (50%)
[6] = men n=10, before treatment empty

TKPRPGP [heptapeptide, Thr-Lys-Pro-Arg-Pro-Gly-Pro]
Level of sexual activity: patients with onset of effect, number (%) ([1]; Group IV n=8, day 15): 0 (%) | Libido: patients with onset of effect, number (%) ([1]; Group IV n=8, day 15): 4 (50%) | Lubrication: patients with onset of effect, number (%) ([1]; Group IV n=8, day 15): 4 (50%) | Mood after sexual acts: patients with onset of effect, number (%) ([1]; Group IV n=8, day 15): 4 (50%) | Onset of orgasm: patients with onset of effect, number (%) ([1]; Group IV n=8, day 15): 6 (75%) | Effect reported by the two patients with completely absent libido ([1]; Group IV, age 25-26 years, erotic dreams with orgasm appeared toward the end of the course): denied an effect | General physical state after sexual acts (n = 33), score after treatment ([1]; Group IV, before treatment 2.8): 4.5 points | Duration of sexual intercourse, mean time for onset of effect ([2]; men): 10.8 days | Frequency of sexual performances, mean time for onset of effect ([2]; men): 10.8 days | Mood after sex acts, mean time for onset of effect ([2]; men): 10.8 days | Mood before sexual intercourse, mean time for onset of effect ([2]; men): 10.8 days | Need for sexual relations, mean time for onset of effect ([2]; men): 1.0 days | Patients in whom the effect had begun by the end of the first twenty-four hours ([2]; men): half the patients | Presence of the effect at the end of the course ([2]; men): all the patients | Reinforcement of effect on the quantified SFM scale, all indicators ([2]; men): 1 score | Sexual spirit, mean time for onset of effect ([2]; men): 10.8 days | Tension of sex organ (erection), mean time for onset of effect ([2]; men): 5.8 days | Duration of sexual intercourse: patients with onset of effect, number (%) ([2]; day 1): 4 (50%) | Erection: patients with onset of effect, number (%) ([2]; day 1): 4 (50%) | Frequency of sexual performances: patients with onset of effect, number (%) ([2]; day 1): 4 (50%) | Mood after sex act: patients with onset of effect, number (%) ([2]; day 1): 4 (50%) | Mood before sexual intercourse: patients with onset of effect, number (%) ([2]; day 1): 4 (50%) | Sexual spirit: patients with onset of effect, number (%) ([2]; day 1): 4 (50%) | Need for sexual relations: patients with onset of effect, number (%) ([2]; day 1 of drug administration): 8 (100%) | Duration of sexual intercourse: patients with onset of effect, number (%) ([2]; day 5): 4 (50%) | Erection: patients with onset of effect, number (%) ([2]; day 5): 8 (100%) | Frequency of sexual performances: patients with onset of effect, number (%) ([2]; day 5): 4 (50%) | Mood after sex act: patients with onset of effect, number (%) ([2]; day 5): 4 (50%) | Mood before sexual intercourse: patients with onset of effect, number (%) ([2]; day 5): 4 (50%) | Need for sexual relations: patients with onset of effect, number (%) ([2]; day 5): 8 (100%) | Sexual spirit: patients with onset of effect, number (%) ([2]; day 5): 4 (50%) | Duration of sexual intercourse: patients with onset of effect, number (%) ([2]; day 10): 8 (100%) | Erection: patients with onset of effect, number (%) ([2]; day 10): 8 (100%) | Frequency of sexual performances: patients with onset of effect, number (%) ([2]; day 10): 8 (100%) | Mood after sex act: patients with onset of effect, number (%) ([2]; day 10): 8 (100%) | Mood before sexual intercourse: patients with onset of effect, number (%) ([2]; day 10): 8 (100%) | Need for sexual relations: patients with onset of effect, number (%) ([2]; day 10): 8 (100%) | Sexual spirit: patients with onset of effect, number (%) ([2]; day 10): 8 (100%) | Duration of sexual intercourse: patients with onset of effect, number (%) ([2]; day 15): 8 (100%) | Erection: patients with onset of effect, number (%) ([2]; day 15): 8 (100%) | Frequency of sexual performances: patients with onset of effect, number (%) ([2]; day 15): 8 (100%) | Mood after sex act: patients with onset of effect, number (%) ([2]; day 15): 8 (100%) | Mood before sexual intercourse: patients with onset of effect, number (%) ([2]; day 15): 8 (100%) | Need for sexual relations: patients with onset of effect, number (%) ([2]; day 15): 8 (100%) | Sexual spirit: patients with onset of effect, number (%) ([2]; day 15): 8 (100%) | Mood after sexual intercourse score 3 (satisfaction and pleasant fatigue): number of patients (%) after treatment [2, 3]: 4 (40%) | Tension of sex organ (erection) score 2 (force or local manipulation necessary for erection sufficient for introduction): number of patients (%) after treatment [2, 3]: 3 (30%) | Mood after sexual intercourse score 2 (indifference): number of patients (%) after treatment [2, 4]: 4 (40%) | Sexual spirit score 2 (several times a month, but not more often than once a week): number of patients (%) after treatment [2, 4]: 6 (60%) | Frequency of sexual performances score 2 (several times a month, but not more often than once a week): number of patients (%) after treatment [2, 5]: 5 (50%) | Mood before sexual intercourse score 2 (some uncertainty, but I don't avoid the attempt): number of patients (%) after treatment [2, 5]: 1 (10%) | Need for sexual relations score 2 (two to four times a month): number of patients (%) after treatment ([2]; men n=10, before treatment 6 (6.0%)): 3 (30%) | Duration of sexual intercourse score 2.5 (ejaculation approximately within 15-20 movements): number of patients (%) after treatment [2, 6]: 4 (40%) | Duration of sexual intercourse score 3 (ejaculation within 1-2 minutes): number of patients (%) after treatment [2, 6]: 6 (60%) | Frequency of sexual performances score 3 (twice or several times a week): number of patients (%) after treatment [2, 6]: 4 (40%) | Frequency of sexual performances score 4 (once or several times every twenty-four hours): number of patients (%) after treatment [2, 6]: 1 (10%) | Mood after sexual intercourse score 4 (complete satisfaction and spiritual uplift): number of patients (%) after treatment [2, 6]: 2 (20%) | Mood before sexual intercourse (mainly, the desire for enjoyment, intercourse without apprehension; score not given): number of patients (%) after treatment [2, 6]: 9 (90%) | Need for sexual relations score 3 (twice or several times a week): number of patients (%) after treatment [2, 6]: 6 (60%) | Need for sexual relations score 4 (once or several times every twenty-four hours): number of patients (%) after treatment [2, 6]: 1 (10%) | Sexual spirit score 3 (twice or several times a week): number of patients (%) after treatment [2, 6]: 4 (40%) | Tension of sex organ (erection) score 3 (erection incomplete, but introduction is successful without a problem): number of patients (%) after treatment [2, 6]: 7 (70%) | Duration of sexual intercourse, score after treatment ([2]; men, before treatment 0.75): 2.8 points | Tension of sex organ (erection), score after treatment ([2]; men, before treatment 1.1): 2.7 points | Sexual spirit, score after treatment ([2]; men, before treatment 1.3): 2.4 points | Mood before sexual intercourse, score after treatment ([2]; men, before treatment 1.4): 2.9 points | Frequency of sexual performances, score after treatment ([2]; men, before treatment 1.5): 2.5 points | Mood after sex acts, score after treatment ([2]; men, before treatment 1.5): 2.8 points | Need for sexual relations, score after treatment ([2]; men, before treatment 1.6): 2.5 points
